Data from patent US20070066803A1.
No constants are given. Whether binding was seen depends on the method and setting. Binding seen in cells or lysates may run through a third protein. Some entries that bind do so weakly or less than the wild type. Where a sequence is shown, tags or fusion partners need not be part of it.

Chains of the proteins cited; added tags and fusions are not shown. Residues count along the entry.
UniProt P35222, residues 2-781: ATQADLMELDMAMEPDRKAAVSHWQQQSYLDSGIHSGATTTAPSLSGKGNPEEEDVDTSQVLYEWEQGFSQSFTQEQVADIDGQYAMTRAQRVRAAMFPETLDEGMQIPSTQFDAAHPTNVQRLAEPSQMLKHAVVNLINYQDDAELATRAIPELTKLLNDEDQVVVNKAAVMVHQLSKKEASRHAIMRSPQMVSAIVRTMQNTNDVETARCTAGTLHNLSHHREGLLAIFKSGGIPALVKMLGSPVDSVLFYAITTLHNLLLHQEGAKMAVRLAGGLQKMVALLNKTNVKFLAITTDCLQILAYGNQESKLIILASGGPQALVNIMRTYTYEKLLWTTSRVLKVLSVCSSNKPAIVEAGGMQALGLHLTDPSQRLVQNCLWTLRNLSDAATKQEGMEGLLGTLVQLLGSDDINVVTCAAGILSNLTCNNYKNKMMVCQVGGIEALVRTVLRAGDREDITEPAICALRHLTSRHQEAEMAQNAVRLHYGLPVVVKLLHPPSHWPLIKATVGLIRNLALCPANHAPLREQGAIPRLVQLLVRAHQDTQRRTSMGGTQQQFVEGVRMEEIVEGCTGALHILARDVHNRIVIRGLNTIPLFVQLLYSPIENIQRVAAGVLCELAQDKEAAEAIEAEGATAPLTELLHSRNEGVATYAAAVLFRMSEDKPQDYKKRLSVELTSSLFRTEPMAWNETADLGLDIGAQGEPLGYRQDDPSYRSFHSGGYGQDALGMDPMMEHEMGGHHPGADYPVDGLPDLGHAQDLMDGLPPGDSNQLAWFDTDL

Experiments:
[1] = molecular target: T1, p120ctn isoform 3A (human) (UniProt O60716); test: co-immunoprecipitation from cell lysates (MDCK-Tetoff-hECRep1a -Tet; HEK-293T cotransfected), Western blot
T1 sequence (looked up): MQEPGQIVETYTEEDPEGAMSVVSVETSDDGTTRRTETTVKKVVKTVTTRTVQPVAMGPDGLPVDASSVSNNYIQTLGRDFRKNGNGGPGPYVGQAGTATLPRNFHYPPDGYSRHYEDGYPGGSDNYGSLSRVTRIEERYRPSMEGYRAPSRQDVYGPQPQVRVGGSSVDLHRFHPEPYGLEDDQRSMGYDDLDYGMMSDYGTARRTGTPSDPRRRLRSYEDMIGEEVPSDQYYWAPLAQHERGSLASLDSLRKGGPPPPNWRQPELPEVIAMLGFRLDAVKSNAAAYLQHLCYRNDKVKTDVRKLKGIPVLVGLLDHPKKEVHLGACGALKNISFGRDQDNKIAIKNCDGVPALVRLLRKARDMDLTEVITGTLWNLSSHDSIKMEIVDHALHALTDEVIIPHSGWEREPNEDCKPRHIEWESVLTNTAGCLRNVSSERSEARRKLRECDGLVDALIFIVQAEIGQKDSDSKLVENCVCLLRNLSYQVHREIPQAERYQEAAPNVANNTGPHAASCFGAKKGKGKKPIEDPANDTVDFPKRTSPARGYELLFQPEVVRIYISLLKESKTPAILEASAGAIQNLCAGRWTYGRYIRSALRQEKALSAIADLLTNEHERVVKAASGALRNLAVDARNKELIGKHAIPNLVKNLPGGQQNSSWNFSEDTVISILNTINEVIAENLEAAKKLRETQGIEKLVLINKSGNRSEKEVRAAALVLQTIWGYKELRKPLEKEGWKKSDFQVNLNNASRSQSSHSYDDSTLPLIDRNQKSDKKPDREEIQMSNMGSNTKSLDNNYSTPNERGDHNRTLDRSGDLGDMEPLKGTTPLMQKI

[2] = molecular target: β-catenin (human) (UniProt P35222); test: as above
[3] = molecular target: T1, p120ctn isoform 3A (human); test: co-immunoprecipitation with anti-Myc 9E10 or anti-p120ctn pp120, Western blot
[4] = molecular target: β-catenin (human) (UniProt P35222); test: co-immunoprecipitation with anti-Myc 9E10 or polyclonal anti-β-catenin, Western blot

Measured: binding

B1: Myc-tagged full-length human hECRep1a (protein, not shown: small tags and cut ends)
chain: MEAFPWAPRSPRRGRAPPPMALVPSARYVSAPGPAHPQPFSSWNDYLGLATLITKAVDGEPRFGCARGGNGGGGSPPSSSSSSCCSPHTGAGPGALGPALGPPDYDEDDDDDSDEPGSRGRYLGSALELRALELCAGPAEAGLLEERFAELSPFAGRAAAVLLGCAPAAAAAATTTSEATPREERAPAWAAEPRLHAASGAAAARLLKPELQVCVFCRNNKEAMALYTTHILKGPDGRVLCPVLRRYTCPLCGASGDNAHTIKYCPLSKVPPPPARPPPRSARDGPPGKKLR
binds: [1] | [2] | [3] | [4]
